Source: PubChem BioAssay AID602313 (National Center for Advancing Translational Sciences (NCATS), 2012)
Out of some 390,000 compounds screened, about 760 (0.19%) were called active. The shares of active, inactive and inconclusive entries below differ from those in the screen. Calls follow the shape of the dose curve; as a rule, active = well fitted inhibition curve with a large enough effect; inconclusive = small, poorly fitted or top-dose-only effect; inactive = flat fitted curve, though single readings scatter. Potencies of inconclusive entries are doubtful fits and often do not repeat.

Test: qHTS for Inhibitors of Vif-A3F Interactions: qHTS; also: nearly all actives have a fitted effect of over 65% in size
Conditions: HeLa A3F-eYFP + Vif (tagged APOBEC3F with the HIV-1 protein that degrades it), YFP fluorescence increase; series mostly up to 46.1 µM
Method in brief: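 HeLa cells stably expressing A3F-eYFP plus Vif, plated and incubated overnight at 37 deg C, then exposed to compounds overnight at 37 deg C. Blocked degradation read as raised yellow fluorescence (Ex 488/Em 500-530).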
Potency is read from the fitted curve at half-maximal effect.

Row | SMILES | Potency
1 | COc1ccc(NC(=O)N2c3ccccc3C(C)=CC2(C)C)cc1 | inactive
2 | CCN(CC)c1ccc2oc(=O)c(C)nc2c1 | inconclusive: 28.2 µM [inhibitor, single point]
3 | Cc1cccc(S(=O)(=O)C(C#N)c2nc3ccccc3nc2N2CCCC2)c1 (stereo not drawn) | inconclusive: 8.91 µM [inhibitor, partial curve, poor fit]
4 | COCc1c(C(=O)Nc2cccc(S(=O)(=O)N3CCCCC3)c2)oc2ccccc12 | inconclusive: 0.631 µM [inhibitor, full curve, poor fit]
5 | O=C(NCc1ccco1)C1CCN(C(=O)N2CCOc3ccccc32)CC1 | inactive
6 | Cc1cc(Cl)ccc1NC(=S)NC1CCCC1 | inconclusive: 20 µM [inhibitor, single point]
7 | CCc1ccc(CNC(=O)CN2C(=O)c3cccnc3Oc3ccc(Cl)cc32)cc1 | inconclusive: 35.5 µM [inhibitor, single point]
8 | COc1ccc(N2CCN(S(=O)(=O)c3ccc4oc(=O)c5ncn(C)c5c4c3)CC2)cc1 | inactive
9 | Cc1cc2oc(=O)cc(CN(C)Cc3ccccc3F)c2cc1Cl | inconclusive: 22.4 µM [inhibitor, partial curve, poor fit]
10 | Cc1ccc(C)c(Sc2ccc(NC(=O)CCN3C(=O)NC4(CCCC4)C3=O)cc2)c1 | inactive
11 | CCOC(=O)c1c(NC(=O)c2ccc(S(=O)(=O)N3CCC(C)CC3)cc2)sc2c1CCN(C)C2 | active: 10 µM
12 | Cc1nnc(-c2ccccc2)c(=O)n1/N=C/c1c(O)ccc2ccccc12 | inconclusive: 35.5 µM [inhibitor, single point]
13 | CN(CC(=O)Nc1c(Cl)cccc1Cl)C(=O)CNC(=O)c1sc2ccccc2c1Cl | inconclusive: 35.5 µM [inhibitor, partial curve, poor fit]
14 | Cc1ccsc1/C=C1\Oc2cc(O)ccc2C1=O | inconclusive: 22.4 µM [inhibitor, single point]
15 | COC(=O)c1[nH]c2c(c1C(=O)OC)CCc1ccccc1-2 | active: 8.91 µM
16 | CCOc1cc(C2NN=C(c3ccc(C)cc3)S2)ccc1O (stereo not drawn) | inactive
17 | N#C/C(=C/c1ccc(N2CCCCC2)o1)C(=O)NCCc1c[nH]c2ccccc12 | inconclusive: 6.31 µM [inhibitor, partial curve, poor fit]
18 | CCOc1ccccc1NC(=O)c1sc2nc3n(c(=O)c2c1C)CCCCC3 | inactive
19 | CCOC(=O)c1cc2c(=O)n3ccccc3nc2n(Cc2ccco2)c1=NC(=O)c1cccnc1 | inactive
20 | Cc1cc(C)c2c(N)c(C(=O)c3ccc(Cl)cc3)sc2n1 | inconclusive: 15.8 µM [inhibitor, single point]
21 | COc1ccccc1CNC(=O)c1ccc(Nc2nc3ccccc3n3nnnc23)cc1 | active: 22.4 µM
22 | COCCN=c1scc(-c2ccccc2)n1/N=C/c1c[nH]c2ccccc12 | inconclusive: 35.5 µM [inhibitor, single point]
23 | C=CCn1c(=N)c(C(=O)NCCCOC)cc2c(=O)n3ccccc3nc21 | inactive

Row | SMILES | Potency
24 | CC1CCN(S(=O)(=O)c2ccc3nc(Nc4cccc(C(F)(F)F)c4)ccc3c2)CC1 | inconclusive: 10 µM [inhibitor, partial curve, poor fit]
25 | Cc1ccc(NC(=O)/C(C#N)=C/c2cn(CC(=O)NCc3ccco3)c3ccccc23)cc1C | inconclusive: 35.5 µM [inhibitor, partial curve, poor fit]
26 | CC(NC(=O)C1=Cc2ccccc2OC1)c1ccccc1 (stereo not drawn) | inactive
27 | CC(C)CCNC(=O)c1sc2ccc(S(=O)(=O)N3CCCCC3)cc2c1N | inconclusive: 6.31 µM [inhibitor, single point]
28 | COc1ccc(-c2nnn(Cc3ccccc3)n2)cc1OC | inconclusive: 35.5 µM [inhibitor, single point]
29 | CN(C)/C=N/C(=S)Nc1ccc(Cl)cc1 | inconclusive: 35.5 µM [inhibitor, single point]
30 | CCCCOc1nc2ccccc2nc1NS(=O)(=O)c1ccc(F)cc1 | active: 10 µM
31 | O=C(OCc1ccccc1F)c1cnc(Cl)c(Cl)c1 | inconclusive: 35.5 µM [inhibitor, single point]
32 | COc1cc2ccnc(C=O)c2cc1OC | inactive
33 | CC(C)CSc1ccccc1NC(=O)c1sc2nc(-c3ccncc3)ccc2c1N | inconclusive: 25.1 µM [inhibitor, single point]
34 | O=C(Cn1cc(S(=O)(=O)Cc2ccccc2F)c2ccccc21)NCc1ccccc1Cl | inactive
35 | Cc1cccc(N2CCN(C(=O)c3ccc4c(c3)NC(=O)C(CSCc3cccc(F)c3)N4)CC2C)c1 (stereo not drawn) | inconclusive: 15.8 µM [inhibitor, partial curve, poor fit]
36 | O=S(=O)(/N=C(\Sc1ccc(Cl)cc1)c1ccccc1)c1ccccc1 | inactive
37 | COc1ccc(-c2cc(C(=O)N3CCOCC3)no2)cc1 | inconclusive: 5.01 µM [inhibitor, single point]
38 | O=C1NCCCC1C(=O)N1CCCCC1 (stereo not drawn) | inconclusive: 6.31 µM [inhibitor, single point]
39 | COc1ccc(-c2cc(C(F)(F)F)n3nc(C(=O)NCCCN4CCOCC4)cc3n2)cc1 | inconclusive: 6.31 µM [inhibitor, full curve, poor fit]
40 | CS(=O)(=O)c1nc(-c2ccccc2)c(-c2ccccc2)[nH]1 | inconclusive: 31.6 µM [inhibitor, single point]
41 | O=C(CCc1nnc2n(Cc3ccc(Cl)cc3)c(=O)c3ccccc3n12)N1CCN(c2ccccn2)CC1 | inactive
42 | Cc1ccc2nc3c(cc(S(=O)(=O)c4ccccc4)c(=N)n3Cc3ccco3)c(=O)n2c1 | inconclusive: 3.16 µM [inhibitor, full curve, poor fit]
43 | COc1ccc2sc(N(CCN(C)C)C(=O)/C=C/c3cccs3)nc2c1 | inactive
44 | O=c1cc2oc3cc(O)c(O)cc3c(-c3ccccc3O)c-2cc1O | inconclusive: 35.5 µM [inhibitor, single point]
45 | COc1ccc2c(c1)c1nc3ccccc3nc1n2CCn1c(=O)oc2ccccc21 | inconclusive: 35.5 µM [inhibitor, single point]
46 | COc1ccc(C(NC(=O)c2cccnc2)c2cc(Cl)c3cccnc3c2O)cc1OC (stereo not drawn) | inactive

Pulled one by one from the entries so far, 5 records:
Row | SMILES | Potency
27 | CC(C)CCNC(=O)c1sc2ccc(S(=O)(=O)N3CCCCC3)cc2c1N | inconclusive: 6.31 µM [inhibitor, single point]
31 | O=C(OCc1ccccc1F)c1cnc(Cl)c(Cl)c1 | inconclusive: 35.5 µM [inhibitor, single point]
34 | O=C(Cn1cc(S(=O)(=O)Cc2ccccc2F)c2ccccc21)NCc1ccccc1Cl | inactive
29 | CN(C)/C=N/C(=S)Nc1ccc(Cl)cc1 | inconclusive: 35.5 µM [inhibitor, single point]
38 | O=C1NCCCC1C(=O)N1CCCCC1 (stereo not drawn) | inconclusive: 6.31 µM [inhibitor, single point]

More results.

Row | SMILES | Potency
47 | CCN1CCc2c(sc(-n3cccc3)c2C(C)NC(=O)Nc2ccccc2C)C1 (stereo not drawn) | inconclusive: 35.5 µM [inhibitor, single point]
48 | COc1ccccc1NC(=O)CNC(c1ccccc1)c1ccccc1 | inconclusive: 35.5 µM [inhibitor, single point]
49 | O=C1CC(NS(=O)(=O)c2ccc([N+](=O)[O-])cc2)CN1c1cccc(F)c1 (stereo not drawn) | inactive
50 | COc1cc2c(cc1OC)C(COc1ccccc1OC)N(C(C)=O)CC2 (stereo not drawn) | inactive
51 | CCOP(=O)(OCC)C(NC(=O)Nc1ccc(C)cc1)C(N)=O (stereo not drawn) | inconclusive: 10 µM [inhibitor, partial curve, poor fit]
52 | O=C(O)CSc1cccc2cccnc12 | inconclusive: 17.8 µM [inhibitor, single point]
53 | Cn1c(C(=O)N[C@@H](Cc2ccccc2)C(=O)O)cc2cc(F)ccc21 | inconclusive: 28.2 µM [inhibitor, single point]
54 | O=C(N/N=C/C=C\c1ccccc1[N+](=O)[O-])c1cc(-c2ccc3ccccc3c2)n[nH]1 | inconclusive: 7.94 µM [inhibitor, partial curve, poor fit]
55 | Cn1cnc2c(SCc3ccccc3)ncnc21 | inconclusive: 14.1 µM [inhibitor, single point]
56 | COCc1cccc(C(=O)NC(c2ccccc2)c2ccccc2)c1 | inconclusive: 17.8 µM [inhibitor, single point]
57 | Cc1ccc(N2CCN(CC(O)COc3cccc4ccccc34)CC2)cc1 (stereo not drawn) | inconclusive: 11.2 µM [inhibitor, partial curve]
58 | COC(=O)[C@@H]1CCCN1C(=O)CCc1nnc(CCc2c[nH]c3ccccc23)o1 | inconclusive: 6.31 µM [inhibitor, single point]
59 | Cc1ccc(S(=O)(=O)N2CCN(C(=O)c3ccccc3OCc3c(C)noc3C)CC2)cc1 | inconclusive: 15.8 µM [inhibitor, partial curve, poor fit]
60 | C=Cc1ccc(Cn2c(=O)n(CC3CCC(C(=O)NC(C)C)CC3)c(=O)c3sccc32)cc1 (stereo not drawn) | inconclusive: 35.5 µM [inhibitor, single point]
61 | CCCCNC(=O)c1ccc2c(c1)NC(=O)C(CS(=O)(=O)Cc1ccc(F)cc1Cl)N2 (stereo not drawn) | inconclusive: 35.5 µM [inhibitor, single point]
62 | CC(C)NC(=S)N/N=C/c1ccc(C(C)(C)C)cc1 | inconclusive: 6.31 µM [inhibitor, single point]
63 | Nc1ccc(-c2c3ccc(=O)cc-3oc3cc(O)ccc23)c(C(=O)O)c1 | inconclusive: 0.562 µM [inhibitor, full curve, poor fit]
64 | Cc1ccnc2ccc(SC(F)(F)F)cc12 | inconclusive: 3.55 µM [inhibitor, single point]
65 | Fc1ccc(C2=CC(c3ccc(Br)o3)n3ncnc3N2)cc1 (stereo not drawn) | inconclusive: 11.2 µM [inhibitor, partial curve, poor fit]
66 | CCN(CC)c1ccc2nc3c4ccccc4c(=O)cc-3oc2c1 | inconclusive: 1.78 µM [inhibitor, full curve, poor fit]
67 | Cc1ccc(-c2cc(C(F)(F)F)n3nc(C(=O)Nc4ccon4)cc3n2)cc1C | inactive
68 | CCOC1=C/C(=C/c2c(N)n3nc(CC(=O)N4CCCC4)sc3nc2=O)C=CC1=O | inconclusive: 3.16 µM [inhibitor, partial curve, poor fit]
